Experimental data reported in patent US20240189315A1, “Cyclic Pyridine Derivatives as cGAS Inhibitors” (Boehringer Ingelheim International GmbH, priority 2022, published 2024).
The structures given here were assigned with low confidence; some may be wrong.

By UniProt entry, the sequences of proteins in these tests, tags left out.
UniProt Q8N884, whole entry: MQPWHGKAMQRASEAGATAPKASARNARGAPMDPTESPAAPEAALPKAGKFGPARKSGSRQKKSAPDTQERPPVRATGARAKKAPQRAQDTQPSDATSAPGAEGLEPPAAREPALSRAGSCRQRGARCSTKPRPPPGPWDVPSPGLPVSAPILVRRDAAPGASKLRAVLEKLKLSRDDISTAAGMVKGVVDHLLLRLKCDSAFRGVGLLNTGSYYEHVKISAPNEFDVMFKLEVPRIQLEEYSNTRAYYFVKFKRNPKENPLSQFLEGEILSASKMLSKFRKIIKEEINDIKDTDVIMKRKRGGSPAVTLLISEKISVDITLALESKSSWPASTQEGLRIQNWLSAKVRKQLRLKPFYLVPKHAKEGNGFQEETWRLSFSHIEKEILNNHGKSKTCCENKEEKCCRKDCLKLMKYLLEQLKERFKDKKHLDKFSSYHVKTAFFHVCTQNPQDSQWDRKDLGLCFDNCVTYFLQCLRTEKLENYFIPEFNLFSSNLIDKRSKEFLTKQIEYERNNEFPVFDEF

How the values were obtained:
[1] = system: pathway directly downstream of cGAS in cGAMP-stimulated THP1-Dual cells; experiment: cGAMP stimulated counter cell assay (THP1(cGAMP) IC50): IFN induction in cGAMP-stimulated THP1-Dual cells; assay type: cell-based, human; settings: Table 1; for IC50: read-out: THP(cGAMP) IC50, cGAMP-stimulated THP1 cells
[2] = molecular target: Human cGAS enzyme (Homo sapiens (Human), UniProt Q8N884); experiment: Human cGAS enzyme assay (hcGAS IC50, in vitro), cGAMP formation by RapidFire MS; assay type: biochemical; settings: read-out: hcGAS IC50; Table 1;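 further: recombinant human cGAS activated by 45 bp dsDNA with 30 µM each ATP and GTP, 90 min, cGAMP vs cyclic-di-GMP standard by MS, 8-point titration from 10 µM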
[3] = molecular target: cellular cGAS activity in baculovirus-stimulated THP1-Dual cells (Homo sapiens (Human), UniProt Q8N884); experiment: Human cGAS cell assay (THP1(vir) IC50): IFN induction in virus-stimulated THP1-Dual cells, IRF Lucia luciferase reporter; assay type: cell-based; settings: read-out: THP(vir) IC50, Table 1;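 further: Eight-point dilution series starting at 10 µM, 1% DMSO, 18 h at 37 °C, luminescence read-out, virus-free wells as 0% and DMSO-treated virus-stimulated wells as 100%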
[4] = molecular target: cellular cGAS activity in dsDNA-stimulated human whole blood (Homo sapiens (Human), UniProt Q8N884); experiment: Human whole blood assay (hWB IC50): IFNα2a production after dsDNA transfection; assay type: cell-based; settings: read-out: hWB IC50, Table 1;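 further: IFNα-2a in plasma measured by MSD electrochemiluminescence immunoassay after 22 h at 37 °C, 8-point dilution series from 10 µM top concentration, DMSO wells as controls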

Row | Structure (SMILES) | IC50 [1] [nM] | IC50 [2] [nM] | IC50 [3] [nM] | Ratio THP(cGAMP) IC50/ THP(vir) IC50 ([1]; selectivity for cGAS inhibition) | IC50 [4] [nM]
1 | C[C@H]1CN2CC[C@]1(F)c1cc(Cl)cnc1O[C@H]1C[C@@H](C(=O)O)N(C1)c1nc(nc3c1oc1ccccc13)C(F)(F)C(=O)NCCCC2=O | 980 | – | – | – | –
2 | C[C@H]1CN2CC[C@]1(F)c1cc(Cl)cnc1O[C@H]1C[C@@H](C(=O)O)N(C1)c1nc(nc3c1oc1ccccc13)C(F)(F)C(=O)N(C)CCCC2=O | > 10000 | 7.5 | 60 | 165 | 76
